# Test results from ChEMBL document CHEMBL4627399, “Synthesis and Structure-Activity Relationships of 5'-Aryl-14-alkoxypyridomorphinans: Identification of a μ Opioid Receptor Agonist/δ Opioid Receptor Antagonist Ligand with Systemic Antinociceptive Activity and Diminished Opioid Side Effects” (J Med Chem, 2020).
# Organism: Mus musculus
# Assay: animal or person
# Type: functional
# Conditions: CD-1, 24 h
smiles,measurement,value
CN1CC[C@]23c4c5ccc(O)c4O[C@H]2[C@@H](O)C=C[C@H]3[C@H]1C5.CN1CC[C@]23c4c5ccc(O)c4O[C@H]2[C@@H](O)C=C[C@H]3[C@H]1C5.O.O.O.O.O.O=S(=O)(O)O [MORPHINE SULFATE],ED50,6.43 mg/kg
